# PubChem BioAssay AID1259405 | NCATS | 2018
# Screen: 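Knock-downs that lift recombinant protein yield in hamster ovary cells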 (primary screen)
# Cell system: Chinese hamster CHO-K1 ovary cells with stable secreted eGFP expression
# Reagents: single siRNA against mouse genes, 0.8 pmol siRNA per well (2 µl of 400 nM stock)
# Timing: 3 days
# Read-out: 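Per-well intracellular GFP measured by laser scanning cytometry, plus viability from ATP luminescence, each relative to plate median of non-targeting control wells, in %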
# Reading the numbers: GFP, % of control: higher = more GFP per well, higher productivity; viability (ATP), % of control: higher = more viable cells (more ATP)
# Active means: 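a knock-down is called active if GFP reaches 120% or more of non-targeting control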
# Shown is one part, drawn at random, of about 50,000 reagents. In the full data, about 4,000 (8%) are marked active. 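Mouse siRNA library applied to hamster cells; one well for each siRNA.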 Entries without a mark were called inactive. The numbers tell different reagents against one gene apart. Reagent sequences are not shown.
gene,siRNA no.,"GFP, % of control","viability (ATP), % of control"
Mpnd (GeneID 68047),1,79.8,66.8
Mpnd (GeneID 68047),2,59.8,42.6
Mpnd (GeneID 68047),3,84.8,95.5
Nphp3 (GeneID 74025),1,93.2,108
Nphp3 (GeneID 74025),2,52.4,69.8
Calr3 (GeneID 73316),1,87.5,124
Calr3 (GeneID 73316),2,78.4,98.4
Trim32 (GeneID 69807),1,44.5,51
Trim32 (GeneID 69807),2,79.1,77.8
Trim32 (GeneID 69807),3,66.9,106
Naprt (GeneID 223646),1,122 (active),108
Naprt (GeneID 223646),2,71,65.6
Naprt (GeneID 223646),3,70.6,63.9
Rad23a (GeneID 19358),1,64.9,83.5
Rad23a (GeneID 19358),2,93.7,87.8
Rhpn2 (GeneID 52428),1,107,88.6
Rhpn2 (GeneID 52428),2,48.4,58.5
Rhpn2 (GeneID 52428),3,73.1,88.9
Cipc (GeneID 217732),1,61.8,60.7
Cipc (GeneID 217732),2,5.84,44.5
Cipc (GeneID 217732),3,98.3,107
Pdzd4 (GeneID 245469),1,33.4,36.4
Pdzd4 (GeneID 245469),2,60.3,72
Pdzd4 (GeneID 245469),3,71.8,119
Nab1 (GeneID 17936),1,87.2,79.6
Nab1 (GeneID 17936),2,97.8,99.2
Ly6c1 (GeneID 17067),1,81.9,80.2
Ly6c1 (GeneID 17067),2,66.7,68.3
Ly6c1 (GeneID 17067),3,85.1,68.1
Ccp110 (GeneID 101565),1,43.1,68.2
Ccp110 (GeneID 101565),2,119,85.6
Ccp110 (GeneID 101565),3,89.9,95.2
En2 (GeneID 13799),1,65.5,62.7
En2 (GeneID 13799),2,120,103
En2 (GeneID 13799),3,50.5,50.3
